Drawing on the supplement of paper PMC12819154, “High-throughput peptide-centric local stability assay extends protein–ligand identification to membrane proteins, tissues and bacteria” (Nature Structural & Molecular Biology, 2025), this text covers log2 fold change for 29 targets.

Chains of the proteins cited; added tags and fusions are not shown. Lines headed by an entry give the natural chain unless they say otherwise; changes in a name come on top.
UniProt P05198, whole entry: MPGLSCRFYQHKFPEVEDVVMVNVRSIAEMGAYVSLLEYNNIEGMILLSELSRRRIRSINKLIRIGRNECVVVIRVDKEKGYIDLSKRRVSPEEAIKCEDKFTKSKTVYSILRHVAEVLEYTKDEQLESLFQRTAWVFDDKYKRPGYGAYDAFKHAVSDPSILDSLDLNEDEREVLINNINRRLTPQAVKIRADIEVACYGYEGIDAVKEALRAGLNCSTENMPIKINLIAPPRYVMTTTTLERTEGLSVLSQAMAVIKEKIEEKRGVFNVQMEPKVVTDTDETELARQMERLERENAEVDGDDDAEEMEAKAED
UniProt P13498: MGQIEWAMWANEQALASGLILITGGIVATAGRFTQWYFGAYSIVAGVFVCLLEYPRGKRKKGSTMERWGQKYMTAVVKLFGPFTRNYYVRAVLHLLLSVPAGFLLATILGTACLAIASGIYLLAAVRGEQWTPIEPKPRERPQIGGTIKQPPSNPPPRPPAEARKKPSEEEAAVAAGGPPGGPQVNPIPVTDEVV
UniProt P13196: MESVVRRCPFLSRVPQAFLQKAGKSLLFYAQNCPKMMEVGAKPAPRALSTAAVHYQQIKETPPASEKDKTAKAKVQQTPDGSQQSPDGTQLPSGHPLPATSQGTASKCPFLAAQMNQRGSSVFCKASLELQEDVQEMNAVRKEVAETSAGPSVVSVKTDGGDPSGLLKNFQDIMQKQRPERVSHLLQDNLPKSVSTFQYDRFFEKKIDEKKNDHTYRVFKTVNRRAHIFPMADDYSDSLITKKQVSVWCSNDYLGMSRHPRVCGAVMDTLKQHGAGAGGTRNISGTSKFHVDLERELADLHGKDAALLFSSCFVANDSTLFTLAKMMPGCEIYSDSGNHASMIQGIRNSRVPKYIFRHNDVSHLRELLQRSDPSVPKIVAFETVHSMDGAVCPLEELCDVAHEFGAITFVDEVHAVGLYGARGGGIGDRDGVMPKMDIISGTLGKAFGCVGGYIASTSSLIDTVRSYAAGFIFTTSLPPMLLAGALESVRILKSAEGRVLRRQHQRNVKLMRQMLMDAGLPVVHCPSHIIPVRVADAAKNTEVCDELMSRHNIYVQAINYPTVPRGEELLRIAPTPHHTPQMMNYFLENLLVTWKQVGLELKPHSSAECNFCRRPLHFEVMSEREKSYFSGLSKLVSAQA
UniProt P05556, whole entry: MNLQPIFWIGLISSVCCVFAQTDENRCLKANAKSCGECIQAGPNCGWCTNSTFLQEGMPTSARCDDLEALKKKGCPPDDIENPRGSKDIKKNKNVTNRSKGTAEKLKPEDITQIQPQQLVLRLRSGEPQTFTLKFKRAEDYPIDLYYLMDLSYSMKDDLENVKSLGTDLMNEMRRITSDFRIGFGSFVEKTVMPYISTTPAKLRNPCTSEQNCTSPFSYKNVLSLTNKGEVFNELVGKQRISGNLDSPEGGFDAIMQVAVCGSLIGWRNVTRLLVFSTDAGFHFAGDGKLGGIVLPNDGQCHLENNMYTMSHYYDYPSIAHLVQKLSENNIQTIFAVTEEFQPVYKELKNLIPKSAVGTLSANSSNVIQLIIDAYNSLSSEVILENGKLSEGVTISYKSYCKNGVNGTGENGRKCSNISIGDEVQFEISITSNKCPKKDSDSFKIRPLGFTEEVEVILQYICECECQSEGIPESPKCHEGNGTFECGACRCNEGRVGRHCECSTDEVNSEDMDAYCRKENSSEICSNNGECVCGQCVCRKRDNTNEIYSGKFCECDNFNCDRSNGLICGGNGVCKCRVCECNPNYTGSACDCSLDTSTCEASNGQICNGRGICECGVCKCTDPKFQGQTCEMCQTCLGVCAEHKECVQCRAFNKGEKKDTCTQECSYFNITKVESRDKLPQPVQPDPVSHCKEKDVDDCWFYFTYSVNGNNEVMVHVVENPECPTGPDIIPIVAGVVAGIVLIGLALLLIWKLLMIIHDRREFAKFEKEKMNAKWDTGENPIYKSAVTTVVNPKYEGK
UniProt P0C0S5, whole entry: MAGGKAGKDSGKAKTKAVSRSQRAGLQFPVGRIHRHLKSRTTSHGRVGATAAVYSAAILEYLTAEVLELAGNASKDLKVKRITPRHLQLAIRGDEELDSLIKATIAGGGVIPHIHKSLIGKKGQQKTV
UniProt P02649, whole entry: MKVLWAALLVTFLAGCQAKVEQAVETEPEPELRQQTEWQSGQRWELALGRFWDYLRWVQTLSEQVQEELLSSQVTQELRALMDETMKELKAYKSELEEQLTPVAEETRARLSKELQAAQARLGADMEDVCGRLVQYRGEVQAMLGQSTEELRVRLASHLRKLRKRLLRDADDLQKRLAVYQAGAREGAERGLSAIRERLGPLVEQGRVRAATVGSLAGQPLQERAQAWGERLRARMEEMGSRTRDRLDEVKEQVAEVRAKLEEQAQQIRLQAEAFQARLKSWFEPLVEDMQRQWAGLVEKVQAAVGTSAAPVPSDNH
UniProt P10619: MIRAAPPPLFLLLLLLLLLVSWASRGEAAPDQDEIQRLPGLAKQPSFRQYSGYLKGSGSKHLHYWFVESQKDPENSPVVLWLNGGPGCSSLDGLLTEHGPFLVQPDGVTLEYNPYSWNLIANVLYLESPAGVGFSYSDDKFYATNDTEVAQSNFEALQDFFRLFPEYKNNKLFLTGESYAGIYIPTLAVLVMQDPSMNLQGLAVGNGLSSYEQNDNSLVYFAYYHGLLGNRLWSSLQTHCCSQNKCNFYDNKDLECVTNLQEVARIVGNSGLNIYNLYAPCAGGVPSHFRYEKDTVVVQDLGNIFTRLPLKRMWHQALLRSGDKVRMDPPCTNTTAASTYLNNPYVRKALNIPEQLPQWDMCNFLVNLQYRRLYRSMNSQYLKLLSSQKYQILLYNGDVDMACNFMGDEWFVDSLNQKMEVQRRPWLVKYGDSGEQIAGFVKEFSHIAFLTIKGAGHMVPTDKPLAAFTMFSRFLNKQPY
UniProt P13807: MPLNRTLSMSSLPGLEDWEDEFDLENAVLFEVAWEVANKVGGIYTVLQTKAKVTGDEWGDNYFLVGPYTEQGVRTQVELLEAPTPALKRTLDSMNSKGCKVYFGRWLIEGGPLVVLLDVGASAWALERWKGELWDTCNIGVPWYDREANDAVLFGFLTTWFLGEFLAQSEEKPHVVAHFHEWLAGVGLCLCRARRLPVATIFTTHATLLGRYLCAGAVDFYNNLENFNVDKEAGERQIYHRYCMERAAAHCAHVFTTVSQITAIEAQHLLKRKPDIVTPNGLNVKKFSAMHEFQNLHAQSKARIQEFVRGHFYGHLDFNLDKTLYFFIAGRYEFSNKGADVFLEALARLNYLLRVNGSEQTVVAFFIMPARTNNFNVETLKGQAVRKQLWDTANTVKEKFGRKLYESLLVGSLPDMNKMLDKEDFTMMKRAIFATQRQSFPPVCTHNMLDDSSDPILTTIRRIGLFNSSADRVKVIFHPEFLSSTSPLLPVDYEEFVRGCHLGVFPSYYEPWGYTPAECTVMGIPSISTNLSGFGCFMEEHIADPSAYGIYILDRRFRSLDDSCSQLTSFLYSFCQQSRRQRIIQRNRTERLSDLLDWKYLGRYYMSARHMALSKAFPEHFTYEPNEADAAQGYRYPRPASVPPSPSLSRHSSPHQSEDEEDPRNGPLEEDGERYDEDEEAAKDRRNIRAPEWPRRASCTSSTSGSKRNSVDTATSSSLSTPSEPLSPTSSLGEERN
UniProt P07951, whole entry: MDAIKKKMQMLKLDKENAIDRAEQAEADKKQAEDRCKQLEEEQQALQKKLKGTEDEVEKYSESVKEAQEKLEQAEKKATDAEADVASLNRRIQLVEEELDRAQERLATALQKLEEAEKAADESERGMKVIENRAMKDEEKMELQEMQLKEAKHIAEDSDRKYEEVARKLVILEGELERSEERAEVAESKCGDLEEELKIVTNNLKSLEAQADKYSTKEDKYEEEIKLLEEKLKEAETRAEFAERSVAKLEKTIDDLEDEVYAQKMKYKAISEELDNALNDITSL
UniProt P02511: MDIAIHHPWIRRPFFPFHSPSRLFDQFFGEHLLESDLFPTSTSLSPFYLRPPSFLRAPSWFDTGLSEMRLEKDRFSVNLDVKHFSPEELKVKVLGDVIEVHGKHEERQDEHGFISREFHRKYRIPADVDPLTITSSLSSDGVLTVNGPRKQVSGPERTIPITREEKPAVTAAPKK
UniProt P05141: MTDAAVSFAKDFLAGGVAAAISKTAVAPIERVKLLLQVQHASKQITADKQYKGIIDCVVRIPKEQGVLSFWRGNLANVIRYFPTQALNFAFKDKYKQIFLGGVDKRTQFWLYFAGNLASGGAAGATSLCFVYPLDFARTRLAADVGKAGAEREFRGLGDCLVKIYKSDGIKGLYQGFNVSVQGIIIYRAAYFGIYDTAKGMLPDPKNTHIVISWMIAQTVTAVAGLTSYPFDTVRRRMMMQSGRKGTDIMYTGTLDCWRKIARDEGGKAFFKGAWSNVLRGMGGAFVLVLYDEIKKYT
UniProt P08590, whole entry: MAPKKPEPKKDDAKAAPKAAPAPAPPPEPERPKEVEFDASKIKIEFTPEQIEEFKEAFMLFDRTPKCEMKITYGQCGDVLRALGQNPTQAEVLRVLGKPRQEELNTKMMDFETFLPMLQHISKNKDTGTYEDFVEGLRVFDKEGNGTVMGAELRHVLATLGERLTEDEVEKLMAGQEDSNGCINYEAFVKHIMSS
UniProt P09493, whole entry: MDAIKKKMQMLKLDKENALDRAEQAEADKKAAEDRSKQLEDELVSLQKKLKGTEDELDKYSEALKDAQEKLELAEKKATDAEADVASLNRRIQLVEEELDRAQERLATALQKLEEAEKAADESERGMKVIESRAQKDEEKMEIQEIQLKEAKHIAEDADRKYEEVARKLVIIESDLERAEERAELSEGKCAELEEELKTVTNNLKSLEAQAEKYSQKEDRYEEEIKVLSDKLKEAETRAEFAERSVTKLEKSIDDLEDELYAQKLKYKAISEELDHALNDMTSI
UniProt P05412, whole entry: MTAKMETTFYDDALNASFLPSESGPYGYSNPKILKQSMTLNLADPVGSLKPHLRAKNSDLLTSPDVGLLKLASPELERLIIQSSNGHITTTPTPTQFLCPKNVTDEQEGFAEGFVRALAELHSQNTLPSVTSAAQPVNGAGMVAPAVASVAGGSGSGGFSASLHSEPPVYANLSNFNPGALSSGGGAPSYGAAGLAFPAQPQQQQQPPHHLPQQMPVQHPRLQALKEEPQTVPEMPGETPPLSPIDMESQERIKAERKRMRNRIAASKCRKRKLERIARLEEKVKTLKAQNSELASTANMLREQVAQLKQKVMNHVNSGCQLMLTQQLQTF
UniProt P05423: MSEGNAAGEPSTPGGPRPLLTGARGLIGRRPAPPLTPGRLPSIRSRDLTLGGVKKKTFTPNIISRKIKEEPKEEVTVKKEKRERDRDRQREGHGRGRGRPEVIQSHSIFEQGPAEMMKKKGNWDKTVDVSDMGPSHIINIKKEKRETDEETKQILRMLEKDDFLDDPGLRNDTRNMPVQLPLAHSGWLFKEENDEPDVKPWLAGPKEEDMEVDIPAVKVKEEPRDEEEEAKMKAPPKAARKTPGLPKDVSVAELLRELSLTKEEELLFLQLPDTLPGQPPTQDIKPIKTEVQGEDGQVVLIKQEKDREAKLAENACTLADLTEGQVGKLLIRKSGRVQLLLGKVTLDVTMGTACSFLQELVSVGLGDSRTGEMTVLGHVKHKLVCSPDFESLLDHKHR
UniProt P07108: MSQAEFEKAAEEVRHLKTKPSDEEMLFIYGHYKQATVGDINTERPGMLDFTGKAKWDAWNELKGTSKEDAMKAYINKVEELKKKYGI
UniProt P05783: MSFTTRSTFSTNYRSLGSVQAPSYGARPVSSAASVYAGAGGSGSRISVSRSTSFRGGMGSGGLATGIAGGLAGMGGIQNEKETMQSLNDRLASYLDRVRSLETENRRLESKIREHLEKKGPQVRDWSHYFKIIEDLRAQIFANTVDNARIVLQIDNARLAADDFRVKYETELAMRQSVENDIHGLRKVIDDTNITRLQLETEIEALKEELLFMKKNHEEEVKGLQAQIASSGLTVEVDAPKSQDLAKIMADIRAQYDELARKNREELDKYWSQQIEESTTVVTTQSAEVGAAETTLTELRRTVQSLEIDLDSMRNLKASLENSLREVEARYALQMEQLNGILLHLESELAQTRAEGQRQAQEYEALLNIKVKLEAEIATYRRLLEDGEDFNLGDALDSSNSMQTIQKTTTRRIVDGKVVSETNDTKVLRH
UniProt P10746: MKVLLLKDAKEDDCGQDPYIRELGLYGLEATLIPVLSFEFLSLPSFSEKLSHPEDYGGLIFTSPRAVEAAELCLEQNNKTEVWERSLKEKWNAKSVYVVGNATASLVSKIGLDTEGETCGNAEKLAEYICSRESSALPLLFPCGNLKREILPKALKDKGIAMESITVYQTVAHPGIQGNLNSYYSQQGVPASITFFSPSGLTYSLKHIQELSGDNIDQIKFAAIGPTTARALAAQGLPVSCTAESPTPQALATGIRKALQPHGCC

The other results are listed elsewhere or left out. Small differences around the control level are noise.

Compound in the assay: Cc1nc(Nc2ncc(C(=O)Nc3c(C)cccc3Cl)s2)cc(N2CCN(CCO)CC2)n1 [dasatinib]
Nature of the assay: log2 fold change of tryptic peptide abundance, ligand vs vehicle (limited proteolysis) (log2 ratio); higher = more trypsin-susceptible (destabilized). The note with it: ligand concentration: 5 uM; sample: K562 cleared lysate.
As to “EIF2S1 (peptide sequence: INLIAPPR, peptide start residue: 227) (UniProt P05198)”, the log2 fold change was -0.0789.
As for “CDK4 (peptide sequence: DPHSGHFVALK, peptide start residue: 25) (UniProt P11802)”, the log2 fold change is -0.224.
As for “UniProt P01112 (peptide sequence: KLNPPDESGPGCMSCK, peptide start residue: 170)”, the figure is 0.619.
For the target “TGFB1 (peptide sequence: AQHLQSSR, peptide start residue: 268) (UniProt P01137)”, the log2 fold change was determined as 0.144.
Under “CYBA (peptide sequence: ERPQIGGTIK, peptide start residue: 140) (UniProt P13498)” stands 0.0952.
Under “ALAS1 (peptide sequence: QMLMDAGLPVVHCPSHIIPVR, peptide start residue: 513) (UniProt P13196)” stands -0.668; under “ITGB1 (peptide sequence: WDTGENPIYK, peptide start residue: 775) (UniProt P05556)”, 0.0811.
Take “UniProt P0C0S5 (peptide sequence: GDEELDSLIK, peptide start residue: 93)”: the log2 fold change amounted to 0.053.
Under “APOE (peptide sequence: LKSWFEPLVEDMQR, peptide start residue: 279) (UniProt P02649)” stands 0.431; under “MRPL3 (peptide sequence: RPGAVATGDIGR, peptide start residue: 239) (UniProt P09001)”, -0.31.
As for “CTSA (peptide sequence: SMNSQYLK, peptide start residue: 376) (UniProt P10619)”, the figure is -0.428; as for “GYS1 (peptide sequence: VGGIYTVLQTK, peptide start residue: 40) (UniProt P13807)”, -0.389; as for “TPM2 (peptide sequence: EAETRAEFAER, peptide start residue: 198) (UniProt P07951)”, -0.133.
As for “LYL1 (peptide sequence: RRPSHCELDLAEGHQPQK, peptide start residue: 131) (UniProt P12980)”, the figure is -0.464; as for “CRYAB (peptide sequence: MDIAIHHPWIR, peptide start residue: 1) (UniProt P02511)”, -0.088.
In the case of “SLC25A5 (peptide sequence: GIIDCVVR, peptide start residue: 53) (UniProt P05141)”, the log2 fold change is 0.0144.
For the target “SPTA1 (peptide sequence: KFDEFQK, peptide start residue: 1119) (UniProt P02549)”, the log2 fold change came out at 0.369.
For the target “MYL3 (peptide sequence: ITYGQCGDVLR, peptide start residue: 73) (UniProt P08590)”, the log2 fold change is 0.0478.
In the case of “TPM1 (peptide sequence: DEEKMEIQEIQLK, peptide start residue: 137) (UniProt P09493)”, the log2 fold change came out at 0.265.
Take “JUN (peptide sequence: QSMTLNLADPVGSLKPHLR, peptide start residue: 36) (UniProt P05412)”: the log2 fold change was -0.0345.
As for “UniProt P09017 (peptide sequence: QQVLELEKEFHYNR, peptide start residue: 172)”, the figure is 0.0302; as for “RPS17 (peptide sequence: GISIKLQEEERER, peptide start residue: 68) (UniProt P08708)”, -0.308.
As for “POLR3D (peptide sequence: DDFLDDPGLR, peptide start residue: 161) (UniProt P05423)”, the figure is 0.865; as for “DBI (peptide sequence: GTSKEDAMK, peptide start residue: 64) (UniProt P07108)”, 0.342; as for “KRT18 (peptide sequence: KNHEEEVK, peptide start residue: 215) (UniProt P05783)”, -0.349.
Under “UROS (peptide sequence: DAKEDDCGQDPYIR, peptide start residue: 8) (UniProt P10746)” stands -0.549; under “CTSH (peptide sequence: TGIYSSTSCHK, peptide start residue: 264) (UniProt P09668)”, -0.839; under “UniProt P0DPI2 (peptide sequence: NLSTFAVDGKDCK, peptide start residue: 142)”, 0.722.
In the case of “CTSL (peptide sequence: EKGYVTPVK, peptide start residue: 122) (UniProt P07711)”, the log2 fold change is -0.0146.
